PubChem BioAssay AID1259425, University of Nebraska Medical Center | 2018
In all, the deposit lists about 14,000 reagents; shown is a random part of them. Not all columns of the deposit are shown. No sequences are given here. The record does not give: the time to read-out.

- Aim: 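Compare each knockdown with KSR1 silencing using changes in marker transcripts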 (primary screen)
- System: HCT116 human colon cancer cells
- Reagents: siRNA pool against human genes, 50 nM siRNA
- Detection: 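mRNA of six signature genes measured together by branched-DNA assay after 50 nM siRNA pool, blank removed, divided by geometric mean of two housekeeping genes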
- Reading the numbers: BNIP3L mRNA: higher = more BNIP3L transcript after knockdown

Knock-down of BICD1 [SID363992935] came out at: BNIP3L mRNA, set 1 = 0.13.
After knock-down of MNDA [SID363993610], the record shows BNIP3L mRNA, set 1 = 0.108.
Knock-down of ADCY4 [SID364004607] gave: BNIP3L mRNA, set 1 = 0.053.
COL10A1 [SID363991816] showed BNIP3L mRNA, set 1 = 0.417.
After knock-down of CERT1 [SID363996599], the record shows BNIP3L mRNA, set 1 = 0.0657.
For SMG5 [SID363999419], the entry reads BNIP3L mRNA, set 1 = 0.0745.
CCDC47 [SID364001551] gave BNIP3L mRNA, set 1 = 0.166.
RAX2 [SID364004153] scored BNIP3L mRNA, set 1 = 0.131.
Against TCEAL3 [SID364004272] the deposit lists BNIP3L mRNA, set 1 = 0.165.
Against APTX [SID364004868] the deposit lists BNIP3L mRNA, set 1 = 0.145.
Silencing of ODF2 [SID363993711] resulted in: BNIP3L mRNA, set 1 = 0.145.
For ENAH [SID364000881] the deposit lists BNIP3L mRNA, set 1 = 0.121.

Reprinted from the listing, 2 entries:
ODF2 [SID363993711]: BNIP3L mRNA, set 1 = 0.145
ENAH [SID364000881]: BNIP3L mRNA, set 1 = 0.121
